“And” between values parts separate entries of the source, which are not always exact repeats. Identical values can stand only once. Among all 400,000 compounds or so, about 5,500 (1.4%) were called active. Inconclusive results, whose numbers are uncertain, are shown with a selection of clear calls. The call rests on the fitted dose curve; in most records, active means well fitted cell-killing curve with a large enough effect; inconclusive means small, poorly fitted or top-dose-only effect, or effect the other way; inactive means flat fitted curve, though single readings scatter. A potency beside an inconclusive call is a rough fit, not a confirmed value. Some structures have more than one record in an assay (separate samples or runs), and their calls can disagree.
assay: qHTS assay for MDR1-selective chemotherapeutics: Primary screen using the parental adenocarcinoma cell KB-3-1; conditions: KB-3-1 viability, CellTiter-Glo ATP luminescence, 72 h; activity change, negative = cytotoxic: at 46.1 µM (top of the series); further: nearly all actives have a fitted effect of over 60% in size
Summary of the method: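 Cytotoxicity in the drug-sensitive parental line KB-3-1 was scored as loss of CellTiter-Glo luminescence following 72 h incubation with compound. Values come from curve fitting of normalized concentration-response data.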
On the % scale 0 is the no-effect control and ±100 the full control effect; potency means the concentration at half of the fitted maximal effect.

| Structure (SMILES) | Potency | activity change, negative = cytotoxic |
| --- | --- | --- |
| CCc1ccc(Nc2n[n+](C)c(-c3ccncc3)s2)cc1 | inconclusive: 18.4 µM [cytotoxic, single point] | – |
| Cc1ccc(NS(=O)(=O)c2cc(-c3n[nH]c(=O)c4ccccc34)ccc2C)cc1 | active: 11.6 µM | – |
| CCCCN(CC)S(=O)(=O)c1ccc(C(=O)Nc2nnc(COC)o2)cc1 | inconclusive: 20.6 µM [cytotoxic, single point] | – |
| CC1(C)CC(N2CCCC2)=CC(=[N+]2CCCCC2)C1 | active: 5.17 µM | – |
| CC(OC(=O)CCC(=O)c1ccc(F)cc1)C(=O)NC1CCCCC1C (stereo unspecified) | – | inactive: 16% |
| C/C(=N\NC(=O)c1cccc(N/N=C(\C)c2cc(O)ccc2O)c1)c1cc(O)ccc1O | inconclusive: 18.4 µM [cytotoxic, single point] | – |
| COC(=O)c1c(-c2ccc(N(C)C)cc2)oc2c1C(OC)CCC2 (stereo unspecified) | inconclusive: 23.1 µM [cytotoxic, single point] | – |
| OC(c1cc(F)cc(Cl)c1)c1ncc(-c2ccccc2C(F)(F)F)[nH]1 (stereo unspecified) | – | inactive: 4.94% |
| O=c1[nH]c(CN2CCCCC2)nc2c1C1(CCCCC1)Cc1ccccc1-2 | – | inactive: 0% |
| COc1ccc(S(=O)(=O)N2c3cc(Cl)ccc3Oc3nc4ccccc4nc32)cc1 | active: 2.06 µM | – |
| O=C(C[C@H]1CC[C@@H](NC(=O)C2CC2)[C@@H](CO)O1)NCc1ccccc1Cl | – | inactive: 8.69% |
| CCC(CC)C(=O)N(C)c1c(C)nc2c(OCc3ccc(Cl)cc3)cccn12 | – | inactive: -16.8% |
| COc1ccc(SC[C@H](C)CN2CC[C@H](C)CCC2=O)cc1 | active: 18.4 µM | – |
| COc1cccc(-n2c(=O)c3sc4ccccc4c3n(CC(=O)Nc3ccccc3OC)c2=O)c1 | – | inactive: -1.96% |
| OC[C@@H]1CN(Cc2ccc(-c3ccccc3)cc2)C[C@H](n2cnc3c(Nc4ccccc4)ncnc32)O1 | active: 13 µM | – |
| O=C(OCC(=O)N1CCN(C(=O)c2ccco2)CC1)c1cn(-c2ccccc2)nc1-c1ccccc1 | inconclusive: 29.1 µM [cytotoxic, single point] | – |
| CN(C(=O)CSc1nc(N)c2c3c(sc2n1)CSC(C)(C)C3)c1ccccc1 | – | inactive: 6.94% |
| OC(COC(c1ccc(Cl)cc1)c1ccc(Cl)cc1)CN1CCCC1 (stereo unspecified) | inconclusive: 18.4 µM [cytotoxic, partial curve, poor fit] | – |
| Cc1cccc(C)c1NC(=S)Nc1ccc(Cl)c(Cl)c1 | inconclusive: 0.0461 µM [cytotoxic, full curve] | – |
| CCOC(=O)N1CCN(C(=O)c2ccc3c(c2)N(Cc2cc(C)ccc2C)C(=O)c2ccccc2S3=O)CC1 (stereo unspecified) | inconclusive: 25.9 µM [cytotoxic, single point] and inconclusive: 18.4 µM [cytotoxic, single point] | – |
| COc1ccc(NC(=O)C2CCCO2)cc1OC (stereo unspecified) | – | inactive: 6.91% |
| Cc1ccc2oc(C(F)(F)C(F)F)cc(=O)c2c1 | inconclusive: 10.3 µM [rising, partial curve] | – |
| Cc1c(Cl)cccc1NC(=O)CNC(=O)C1CCN(C(=O)Nc2ccccc2)CC1 | – | inactive: 24.1% |
| O=C1NC(=S)N/C1=C/c1cccc([N+](=O)[O-])c1O | inconclusive: 29.1 µM [rising, single point] | – |

| Structure (SMILES) | Potency | activity change, negative = cytotoxic |
| --- | --- | --- |
| O=C(NCc1cccnc1)Nc1ccc(Br)cc1 | – | inactive: -19.8% |
| COc1cccc(-c2ccc3c(N)c(C(=O)c4ccc(Br)cc4)sc3n2)c1 | inconclusive: 25.9 µM [cytotoxic, partial curve, poor fit] | – |
| CN1CCN(c2ccc(Nc3c4ccccc4nc4ccccc34)cc2)CC1 | active: 14.6 µM | – |
| CCOC(=O)C1=C(C)N=c2s/c(=C\c3ccc(OC(C)=O)cc3)c(=O)n2C1/C=C/c1ccccc1 (stereo unspecified) | inconclusive: 29.1 µM [cytotoxic, single point] | – |
| CCc1ccc(NC(=O)N(Cc2ccco2)C(C)c2cccs2)cc1 (stereo unspecified) | inconclusive: 29.1 µM [cytotoxic, single point] | – |
| Cc1ccc(N(C(=O)c2snc(C(N)=O)c2N)C(C(=O)NCc2ccccc2)c2ccncc2)c(C)c1 (stereo unspecified) | inconclusive: 3.66 µM [rising, partial curve, poor fit] | – |
| CCN1CCN(C2=C(NS(=O)(=O)c3ccc(NC(C)=O)cc3)C(=O)c3ccccc3C2=O)CC1 | inconclusive: 29.1 µM [cytotoxic, single point] | – |
| O=C1N[C@@H](Cc2ccccc2)C(=O)N2CCCC12 (stereo partly specified) | – | inactive: -1.95% |
| c1ccc(-c2nnsc2Sc2ccccn2)cc1 | – | inactive: -5.56% |
| CCc1cc(CNC(=O)c2ccc(OC3CCN(CCc4ccccc4)CC3)cc2)on1 | inconclusive: 29.1 µM [cytotoxic, single point] | – |
| Cc1cc(C)c(NS(=O)(=O)c2ccc(-c3cnc(C4CC4)o3)cc2)c(C)c1 | active: 0.461 µM | – |
| CC1(c2ccc3ccccc3c2)NC(=O)N(CC(=O)Nc2cccc(S(=O)(=O)N3CCOCC3)c2)C1=O (stereo unspecified) | inconclusive: 29.1 µM [cytotoxic, single point] | – |
| CCN1CCN(c2ccc(NC(=O)c3cccc(OCc4ccccc4)c3)cc2)CC1 | inconclusive: 29.1 µM [cytotoxic, single point] | – |
| COc1ccccc1CNC(=O)C1CC2Cn3c(nc4cc(Cl)c(Cl)cc43)C2N1C (stereo unspecified) | – | inactive: -6.62% |
| COc1ccccc1-c1nc2c(c(SCC(=O)N3CCCCC3)n1)Cc1c(CO)cnc(C)c1O2 | – | inactive: 5.79% |
| COc1cc2cc(CN(CCc3cccc(C)c3)C(=S)NCCCN(C)C)c(=O)[nH]c2cc1OC | – | inactive: 10.8% |
| Cc1onc(-c2ccccc2Cl)c1C(=O)N1CCCC1 | – | inactive: 2.17% |
| COc1ccc(NC(=O)CCCSc2nc(-c3ccco3)cc(C(F)(F)F)n2)c(OC)c1 | inconclusive: 29.1 µM [rising, single point] | – |
| Cc1ccc(C#CC[N+](C)(C)CC#Cc2ccccc2)cc1 | inconclusive: 8.2 µM [cytotoxic, partial curve] | – |
| Clc1cccc(-c2nnc(SC/C=C/c3ccccc3)n2Cc2ccco2)c1 | inconclusive: 25.9 µM [cytotoxic, partial curve, poor fit] | – |
| CCCNC(=O)CSc1nc(-c2cccs2)cc(C(F)(F)F)n1 | – | inactive: -2.01% |
| CCCN(C(=O)C1CSC2(C)CCC(=O)N12)c1c(N)n(Cc2ccccc2)c(=O)[nH]c1=O (stereo unspecified) | – | inactive: 0.199% |
| O=C(COc1ccc(Cl)cc1Cl)Nc1ccc2nc3n(c(=O)c2c1)CCCC3 | inconclusive: 29.1 µM [cytotoxic, single point] | – |
| O=S(=O)(NCc1cccs1)c1cccc(S(=O)(=O)N2CCCCC2)c1 | inconclusive: 29.1 µM [cytotoxic, single point] | – |

| Structure (SMILES) | Potency | activity change, negative = cytotoxic |
| --- | --- | --- |
| CCNS(=O)(=O)c1ccc(CCC(=O)N2CCN(c3cc(Cl)ccc3C)CC2)cc1 | inconclusive: 20.6 µM [cytotoxic, single point] | – |
| COc1ccc(/C=N/Nc2ccccn2)c(OC)c1OC | inconclusive: 6.51 µM [rising, partial curve] | – |
| COc1ccccc1/C=N\Nc1cn[nH]c(=O)c1Cl | – | inactive: -27.4% |
| CC1=Nc2ccccc2/C1=C\c1sc(Nc2ccc(C)cc2)nc1O | inconclusive: 0.291 µM [cytotoxic, full curve, poor fit] | – |
| CC1(C)Cc2ccccc2-c2nnc(-c3ccc4ccccc4n3)n21 | inconclusive: 29.1 µM [cytotoxic, single point] | – |
| O=C(Nc1cccn(Cc2c(F)cccc2Cl)c1=O)NC1CCCCC1 | active: 2.59 µM | – |
| CC(C)(C)c1ccc(C(=O)NCC(=O)NNC(=O)c2ccccc2O)cc1 | inconclusive: 23.1 µM [cytotoxic, single point] | – |
| COc1c(Cl)cc(C(=O)Nc2ccccc2-c2ccccc2)cc1Cl | active: 20.6 µM | – |
| Cc1c(C2(O)CCCCC2)[nH]c2ccc(C#N)cc12 | inconclusive: 16.4 µM [cytotoxic, partial curve, poor fit] | – |
| COc1ccc(C(=O)Nc2ccc(OCC(F)(F)C(F)F)c(C(F)(F)F)c2)cc1OC | inconclusive: 35.5 µM [cytotoxic, single point] | – |
| O=C(c1cccn2c(=O)c3cc(Cl)ccc3nc12)N1CCN(Cc2ccc3c(c2)OCO3)CC1 | inconclusive: 29.1 µM [cytotoxic, single point] | – |
| Cc1cc(C)c(S(=O)(=O)c2cccc(Cl)c2)c(=O)[nH]1 | – | inactive: 6.29% |
| CN(C)C=NC(=O)c1cc2c(n(-c3ccccc3)c1=O)CC(C)(C)CC2=O | – | inactive: 7.17% |
| COc1ccccc1C(CNC(=O)C1COc2ccccc2O1)N1CCCC1 (stereo unspecified) | inconclusive: 16.4 µM [cytotoxic, partial curve] | – |
| Cc1cccc2sc(N(CCCN(C)C)C(=O)c3ccco3)nc12 | inconclusive: 32.6 µM [cytotoxic, single point] | – |
| CCN(CC)C(=O)Cn1c(=O)n(CCC(=O)Nc2ccc(F)cc2)c(=O)c2sccc21 | – | inactive: -5.14% |
| CN(C)c1cc2c(cc1NS(=O)(=O)c1ccccc1)n(C)c(=O)n2C | inconclusive: 25.9 µM [rising, partial curve, poor fit] | – |
| COc1ccc(CNC(=O)CCCn2nc(C)c([N+](=O)[O-])c2C)cc1OC | – | inactive: 9.04% |
| Cc1cc(C(=O)CN2C(=O)C(=O)N(Cc3ccco3)C2=O)c(C)n1CCc1ccccc1 | inconclusive: 16.4 µM [cytotoxic, single point] | – |
| Cc1cccc(NC(=O)CNC(=O)c2sc3ccccc3c2Cl)n1 | – | inactive: 9.35% |
| O=C(NCCc1ccc(Cl)cc1)C1CCN(S(=O)(=O)c2ccc(Br)s2)CC1 | inconclusive: 29.1 µM [cytotoxic, single point] | – |
| CN1/C(=C\C(=O)Nc2ccc(Cl)cc2)C(C)(C)c2ccccc21 | – | inactive: 15% |
| Cc1ccc(CNC(=O)C(=O)NCC2OCCN2S(=O)(=O)c2ccc(Cl)cc2)cc1 (stereo unspecified) | inconclusive: 29.1 µM [rising, single point] | – |

Source: PubChem BioAssay AID1347075 (National Center for Advancing Translational Sciences (NCATS), 2019)
